# In PMC10799366:
# Amino acid sequences for entries named in this document (tags omitted). Residues count along the entry.
# UniProt P16070, residues 21-742: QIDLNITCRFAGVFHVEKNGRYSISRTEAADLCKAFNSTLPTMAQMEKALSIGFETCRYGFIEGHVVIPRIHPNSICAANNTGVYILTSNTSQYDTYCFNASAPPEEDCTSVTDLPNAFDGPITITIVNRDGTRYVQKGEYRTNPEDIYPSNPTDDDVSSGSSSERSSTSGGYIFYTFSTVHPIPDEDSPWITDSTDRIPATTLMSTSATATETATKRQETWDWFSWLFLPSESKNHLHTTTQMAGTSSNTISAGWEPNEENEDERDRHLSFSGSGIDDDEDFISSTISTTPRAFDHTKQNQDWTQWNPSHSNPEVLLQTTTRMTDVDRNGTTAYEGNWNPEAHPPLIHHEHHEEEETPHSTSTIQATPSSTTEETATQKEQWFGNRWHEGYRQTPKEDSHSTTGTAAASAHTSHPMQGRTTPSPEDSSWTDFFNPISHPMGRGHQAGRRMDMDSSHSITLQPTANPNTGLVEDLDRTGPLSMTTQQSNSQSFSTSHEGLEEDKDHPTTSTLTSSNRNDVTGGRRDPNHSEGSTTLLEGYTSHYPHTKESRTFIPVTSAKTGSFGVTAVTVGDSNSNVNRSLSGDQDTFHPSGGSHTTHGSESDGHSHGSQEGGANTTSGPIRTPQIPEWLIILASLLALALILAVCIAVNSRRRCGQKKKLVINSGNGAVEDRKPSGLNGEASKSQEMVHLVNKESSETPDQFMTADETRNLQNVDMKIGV
# UniProt P26022, residues 18-381: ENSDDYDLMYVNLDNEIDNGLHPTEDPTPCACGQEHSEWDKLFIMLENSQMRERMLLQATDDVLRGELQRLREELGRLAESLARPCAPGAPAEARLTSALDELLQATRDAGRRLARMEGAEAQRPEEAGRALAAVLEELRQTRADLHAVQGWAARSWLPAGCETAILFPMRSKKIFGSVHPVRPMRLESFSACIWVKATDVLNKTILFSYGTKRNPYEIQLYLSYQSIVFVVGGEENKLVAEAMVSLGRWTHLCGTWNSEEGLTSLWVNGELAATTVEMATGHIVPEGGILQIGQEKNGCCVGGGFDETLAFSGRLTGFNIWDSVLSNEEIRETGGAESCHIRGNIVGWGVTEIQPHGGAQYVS
# These are yes or no findings as the source states them, for the method shown. In cells and extracts the contact can be indirect. Some entries that bind do so weakly or less than the wild type.
# Target: CD44 on THP-1 macrophages (human (endogenous in THP-1)) (UniProt P16070)
# Assay: proximity ligation; in situ proximity ligation assay (PLA) on THP-1 macrophages, with or without the anti-PTX3 antibody WHC-001; only the binder purified
substance,measurement,value
Recombinant human wild-type pentraxin 3 (PTX3) (from UniProt P26022 18-381) (ligand),binding,binds
